Data from PMC5794198, “Inhibitors of Trypanosoma cruzi Sir2 related protein 1 as potential drugs against Chagas disease” (PLoS Neglected Tropical Diseases, 2018).
Read-outs that look alike come from different tables or passages of the source.

Test system: T. cruzi epimastigotes overexpressing TcSir2rp1 (OE) with the pTcINDEX
Assay type: cell-based, Trypanosoma cruzi
Procedure: For the generation of transgenic cell lines, 15 μg of the constructs were digested overnight (SpeI for the pTcINDEX construct; NotI for the knockout constructs), precipitated with sodium acetate / ethanol, and introduced into 1.5 x 10^7 epimastigote cells in the logarithmic phase of growth via transfection using an AMAXA Nucleofector II device (program V-33) with the Human T-cell nucleofector kit (Lonza). Parasites were suspended in fresh growth medium and incubated for 24-hrs to allow for the expression of drug selectable markers, prior to the addition of appropriate antibiotic (Blasticidin S (Thermo Fisher Scientific; 10 μg/mL); Hygromycin B (Formedium; 100 μg/mL); and Puromycin (Calbiochem; 5 μg/mL). Cells were then incubated for a further four- to six-weeks to allow for the selection of transgenic parasites and then genetically verified by PCR using ORF and drug selection primers.
The TcSir2rp1 open reading frame (TriTryp accession number TcCLB.508207.150) was amplified from CL-Brener genomic DNA using KOD polymerase (Novagen). The resulting PCR product encoding the full-length ORF was cloned directly into the T. cruzi expression vector, pTcINDEX [49], using NotI and BamHI restriction sites.
T. cruzi epimastigotes were seeded at 1.25 x 10^6 cells/mL in a 96-well plate in the presence of varying concentrations of test compounds. Following a 64-hour incubation, 15 μL of a resazurin solution (Sigma-Aldrich; 1.1 mg/mL in PBS). Following an additional 6-hr incubation, cell viability was determined by measuring the fluorescence of each culture with a BioTek FLX800 Fluorescence Microplate Reader (excitation and emission wavelengths of 540/535 nm and 590/610 nm, respectively) and associated Gen5 Reader Control 2.0 software. EC50 values were determined by nonlinear regression to a sigmoidal dose-response curve using GraFit software (Version 5.0, Erithacus Software). Each assay was performed in at least triplicate in parallel to the known trypanocidal agent nifurtimox.

Row | Compound | Fold-increase of EC50 (OE vs WT) | Fold-increase of EC50 (OE vs WT) (listed as nifurtimox)
1 | O=C1c2cccc3cccc(c23)C(=O)N1CCCNCCCCCNCCCN1C(=O)c2cccc3cccc(c23)C1=O [Compound 2] | 4.49 | 
2 | O=C1c2cccc3cccc(c23)C(=O)N1CCCNCCCCCCNCCCN1C(=O)c2cccc3cccc(c23)C1=O [Compound 3] | 3.04 | 
3 | O=C1c2cccc3cccc(c23)C(=O)N1CCCNCCCCCCCCCNCCCN1C(=O)c2cccc3cccc(c23)C1=O [Compound 6] | 4.81 | 
4 | O=C1c2cccc3cccc(c23)C(=O)N1CCCNCCCCNCCCNCCCN1C(=O)c2cccc3cccc(c23)C1=O [Compound 9, BNIP Spermidine] | 2.77 | 
5 | CC1CS(=O)(=O)CCN1/N=C/c1ccc([N+](=O)[O-])o1 (stereo not drawn) [Nifurtimox, nifurtimox, reference compound] | 1.06 | did not alter significantly
